For the assay, the target named is Flag-CRM1 (human) (UniProt O14980). The assay can be described thus: co-IP; 293T cells co-transfected with Flag- and HA-tagged constructs; lysis in EBC buffer (50 mM Tris pH 7.5, 120 mM NaCl, 0.5% NP-40); agarose-conjugated antibody 3-4 h at 4 °C; four washes with NETN buffer; immunoblot. (A western blot detects proteins with antibodies after separation by electrophoresis.)

Chains of the proteins cited; added tags and fusions are not shown. Lines headed by an entry give the natural chain unless they say otherwise; changes in a name come on top.
UniProt O14980: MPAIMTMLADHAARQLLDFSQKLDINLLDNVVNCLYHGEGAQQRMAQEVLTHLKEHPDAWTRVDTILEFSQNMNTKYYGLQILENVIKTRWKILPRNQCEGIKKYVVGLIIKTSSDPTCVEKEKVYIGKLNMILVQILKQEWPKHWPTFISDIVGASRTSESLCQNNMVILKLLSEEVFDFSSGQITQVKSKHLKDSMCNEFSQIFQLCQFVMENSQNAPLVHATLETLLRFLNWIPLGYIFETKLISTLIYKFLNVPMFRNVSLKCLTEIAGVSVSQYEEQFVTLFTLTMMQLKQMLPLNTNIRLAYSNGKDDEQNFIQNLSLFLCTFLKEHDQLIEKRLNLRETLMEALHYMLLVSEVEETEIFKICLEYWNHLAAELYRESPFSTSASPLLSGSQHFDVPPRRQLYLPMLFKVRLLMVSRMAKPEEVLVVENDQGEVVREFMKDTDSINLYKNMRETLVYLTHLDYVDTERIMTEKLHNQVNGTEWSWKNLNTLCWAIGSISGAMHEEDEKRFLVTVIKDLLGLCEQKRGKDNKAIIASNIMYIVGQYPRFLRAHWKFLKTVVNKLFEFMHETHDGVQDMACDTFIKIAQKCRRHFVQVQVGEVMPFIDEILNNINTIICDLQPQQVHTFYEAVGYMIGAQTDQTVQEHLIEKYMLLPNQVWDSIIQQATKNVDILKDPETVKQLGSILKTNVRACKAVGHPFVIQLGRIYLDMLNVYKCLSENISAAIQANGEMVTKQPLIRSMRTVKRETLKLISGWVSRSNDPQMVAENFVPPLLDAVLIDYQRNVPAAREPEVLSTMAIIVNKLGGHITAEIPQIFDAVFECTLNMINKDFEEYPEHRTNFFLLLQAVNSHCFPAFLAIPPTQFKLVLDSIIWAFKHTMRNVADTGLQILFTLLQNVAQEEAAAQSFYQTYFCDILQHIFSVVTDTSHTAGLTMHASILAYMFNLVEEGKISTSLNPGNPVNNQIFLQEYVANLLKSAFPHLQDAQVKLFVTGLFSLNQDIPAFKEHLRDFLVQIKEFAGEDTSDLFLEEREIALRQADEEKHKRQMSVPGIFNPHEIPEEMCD
UniProt Q9UM11: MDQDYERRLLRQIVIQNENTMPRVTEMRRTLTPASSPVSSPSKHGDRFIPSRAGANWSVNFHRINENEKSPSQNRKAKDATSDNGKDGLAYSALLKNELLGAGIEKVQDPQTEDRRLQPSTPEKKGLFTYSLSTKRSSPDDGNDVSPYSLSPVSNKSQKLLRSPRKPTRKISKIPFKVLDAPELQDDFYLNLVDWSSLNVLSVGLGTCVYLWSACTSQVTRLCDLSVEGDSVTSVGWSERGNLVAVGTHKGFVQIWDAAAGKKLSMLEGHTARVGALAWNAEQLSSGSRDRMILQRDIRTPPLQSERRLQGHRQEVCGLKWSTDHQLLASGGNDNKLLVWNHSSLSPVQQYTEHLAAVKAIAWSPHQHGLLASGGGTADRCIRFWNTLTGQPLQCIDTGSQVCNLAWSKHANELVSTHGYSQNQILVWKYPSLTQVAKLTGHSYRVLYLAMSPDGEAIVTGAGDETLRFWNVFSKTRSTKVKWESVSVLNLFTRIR

These are yes or no findings as the source states them, for the method shown. In cells and extracts the contact can be indirect. A result given as binding can be weak or reduced; the word gives no strength.

Regarding “HA-Cdh1 with the NES sequence deleted (from UniProt Q9UM11)”, the binding result is reported as “binds”.

Values taken from article PMC6697746.
